The text below walks through data of publication doi:10.1101/2020.09.18.303255.

Amino acid sequences for entries named in this document (tags omitted). Residues count along the entry.
UniProt Q9Y375, residues 25-327: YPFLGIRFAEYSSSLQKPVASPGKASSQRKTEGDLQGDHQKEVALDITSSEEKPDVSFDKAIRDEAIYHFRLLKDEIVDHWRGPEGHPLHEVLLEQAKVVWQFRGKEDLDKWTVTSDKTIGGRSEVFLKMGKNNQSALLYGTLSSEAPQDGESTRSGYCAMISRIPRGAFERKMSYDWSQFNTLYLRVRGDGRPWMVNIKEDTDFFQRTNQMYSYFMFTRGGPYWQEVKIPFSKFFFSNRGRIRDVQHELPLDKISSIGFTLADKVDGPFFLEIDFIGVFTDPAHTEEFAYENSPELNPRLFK
UniProt P03905: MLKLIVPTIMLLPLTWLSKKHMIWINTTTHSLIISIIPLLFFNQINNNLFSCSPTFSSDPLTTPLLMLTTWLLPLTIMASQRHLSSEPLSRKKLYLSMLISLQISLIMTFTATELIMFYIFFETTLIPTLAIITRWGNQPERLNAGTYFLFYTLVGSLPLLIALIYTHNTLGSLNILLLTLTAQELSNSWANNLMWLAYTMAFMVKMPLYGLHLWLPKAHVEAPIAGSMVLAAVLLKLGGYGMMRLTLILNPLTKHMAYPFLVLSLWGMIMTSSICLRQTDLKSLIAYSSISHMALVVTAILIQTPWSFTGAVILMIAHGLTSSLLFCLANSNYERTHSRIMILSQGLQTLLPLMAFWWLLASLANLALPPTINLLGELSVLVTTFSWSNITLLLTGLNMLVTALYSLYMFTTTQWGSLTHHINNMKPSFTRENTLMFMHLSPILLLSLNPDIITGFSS
UniProt O95298: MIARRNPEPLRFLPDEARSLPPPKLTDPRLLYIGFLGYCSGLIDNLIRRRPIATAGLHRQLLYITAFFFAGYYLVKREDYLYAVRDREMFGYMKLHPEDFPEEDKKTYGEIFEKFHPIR
UniProt P03891: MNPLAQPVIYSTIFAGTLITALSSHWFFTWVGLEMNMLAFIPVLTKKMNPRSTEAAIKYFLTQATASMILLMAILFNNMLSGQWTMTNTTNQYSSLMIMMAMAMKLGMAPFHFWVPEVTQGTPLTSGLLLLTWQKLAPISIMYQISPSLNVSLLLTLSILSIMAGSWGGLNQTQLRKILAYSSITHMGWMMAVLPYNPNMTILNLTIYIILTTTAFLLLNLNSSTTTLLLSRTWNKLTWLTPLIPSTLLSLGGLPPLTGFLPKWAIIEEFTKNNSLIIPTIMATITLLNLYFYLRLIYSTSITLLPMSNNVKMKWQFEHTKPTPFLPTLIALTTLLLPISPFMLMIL
UniProt P03886: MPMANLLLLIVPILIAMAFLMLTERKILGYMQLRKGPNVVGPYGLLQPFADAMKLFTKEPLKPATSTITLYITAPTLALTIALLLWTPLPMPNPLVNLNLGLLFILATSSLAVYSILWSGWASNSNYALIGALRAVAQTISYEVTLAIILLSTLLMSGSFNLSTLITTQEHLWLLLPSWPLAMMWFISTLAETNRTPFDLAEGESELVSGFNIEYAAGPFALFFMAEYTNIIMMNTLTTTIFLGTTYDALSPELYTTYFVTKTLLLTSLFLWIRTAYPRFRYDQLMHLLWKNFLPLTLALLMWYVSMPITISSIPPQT

Read-outs that look alike come from different tables or passages of the source. Results are given in words; binding and its absence hold for the method and conditions named. Binding seen in cells or lysates may run through a third protein. Some binding calls cover weakened binding; strength is not graded here. Where a sequence is shown, tags or fusion partners need not be part of it.

Common to all, as to assay: co-IP
Experiment [1] deals with T1, TMEM126B with a Flag epitope tag (human) (UniProt Q8IUX1).
T1 sequence: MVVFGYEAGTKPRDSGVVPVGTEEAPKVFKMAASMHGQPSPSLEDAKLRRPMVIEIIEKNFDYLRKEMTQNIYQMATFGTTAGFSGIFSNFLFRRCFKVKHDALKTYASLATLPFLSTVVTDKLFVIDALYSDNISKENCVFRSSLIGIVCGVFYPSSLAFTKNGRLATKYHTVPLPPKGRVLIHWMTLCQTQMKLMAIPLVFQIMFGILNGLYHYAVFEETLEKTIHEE

Experiment [2] has as its target T2, TMEM126A with a C-terminal Flag epitope tag (human) (UniProt Q9H061).
T2 sequence: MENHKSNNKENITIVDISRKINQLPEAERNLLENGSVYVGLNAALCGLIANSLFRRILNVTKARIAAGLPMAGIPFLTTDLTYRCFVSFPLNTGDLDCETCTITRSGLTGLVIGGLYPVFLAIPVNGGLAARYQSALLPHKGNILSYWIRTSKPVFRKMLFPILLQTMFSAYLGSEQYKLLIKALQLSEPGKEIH

Experiment [3] has as its target T1, TMEM126B with a Flag epitope tag (human). The source holds these as a separate data set.

On to NDUFAF1 (from UniProt Q9Y375 25-327), for which the binding entry in experiment [1] is “binds”.
As to “mtDNA-encoded complex I subunit ND4 (from UniProt P03905 1-459)”, in experiment [2], the binding result is “binds”.
With NDUFC2 (from UniProt O95298 1-119), the binding result in experiment [1] was “binds”.
Take ND2 (from UniProt P03891 1-347): in experiment [2], the binding entry was “binds weakly”.
Same read-out and setting: the entry for ND1 (from UniProt P03886 1-318) is “binds weakly”.

B1: ECSIT (protein, UniProt Q9BQ95 49-431)
chain: SSEQSLVPSPPEPRQRPTKALVPFEDLFGQAPGGERDKASFLQTVQKFAEHSVRKRGHIDFIYLALRKMREYGVERDLAVYNQLLNIFPKEVFRPRNIIQRIFVHYPRQQECGIAVLEQMENHGVMPNKETEFLLIQIFGRKSYPMLKLVRLKLWFPRFMNVNPFPVPRDLPQDPVELAMFGLRHMEPDLSARVTIYQVPLPKDSTGAADPPQPHIVGIQSPDQQAALARHNPARPVFVEGPFSLWLRNKCVYYHILRADLLPPEEREVEETPEEWNLYYPMQLDLEYVRSGWDNYEFDINEVEEGPVFAMCMAGAHDQATMAKWIQGLQETNPTLAQIPVVFRLAGSTRELQTSSAGLEEPPLPEDHQEEDDNLQRQQQGQS
For the molecule B1, in experiment [3], the binding result is “binds”.

B2: ACAD9 (protein, UniProt Q9H845 38-621)
chain: AFAKELFLGKIKKKEVFPFPEVSQDELNEINQFLGPVEKFFTEEVDSRKIDQEGKIPDETLEKLKSLGLFGLQVPEEYGGLGFSNTMYSRLGEIISMDGSITVTLAAHQAIGLKGIILAGTEEQKAKYLPKLASGEHIAAFCLTEPASGSDAASIRSRATLSEDKKHYILNGSKVWITNGGLANIFTVFAKTEVVDSDGSVKDKITAFIVERDFGGVTNGKPEDKLGIRGSNTCEVHFENTKIPVENILGEVGDGFKVAMNILNSGRFSMGSVVAGLLKRLIEMTAEYACTRKQFNKRLSEFGLIQEKFALMAQKAYVMESMTYLTAGMLDQPGFPDCSIEAAMVKVFSSEAAWQCVSEALQILGGLGYTRDYPYERILRDTRILLIFEGTNEILRMYIALTGLQHAGRILTTRIHELKQAKVSTVMDTVGRRLRDSLGRTVDLGLTGNHGVVHPSLADSANKFEENTYCFGRTVETLLLRFGKTIMEEQLVLKRVANILINLYGMTAVLSRASRSIRIGLRNHDHEVLLANTFCVEAYLQNLFSLSQLDKYAPENLDEQIKKVSQQILEKRAYICAHPLDRTC
On to B2, for which the binding entry in experiment [3] is given as “binds”.
